Measurements from US8546357B2, “Boron-containing small molecules for controlling ectoparasites” (priority 2011, dated 2013).
Some results were stated once for a whole list of compounds, not compound by compound. At least one compound was matched to its structure with a doubt left.

Legend:
[1] = tested on: adult American dog tick (Dermacentor variabilis); test: Therapeutic (knockdown) and residual efficacy against adult American dog tick infestations on dogs, oral; assay type: in vivo; conditions: Example 6, oral capsule 25 mg/kg, through at least 21 days
Description: The therapeutic (knockdown) and residual efficacy of 5, administered orally at a point dose of 25 mg/kg bodyweight, was evaluated against adult American dog tick (D. variabilis) infestations on dogs. Six beagle dogs were allocated to one of two treatment groups, an untreated control group (n=4 dogs) or 5 group (n=2 dogs). On Day 0, two dogs were treated with 5 via oral gavage (25 mg/ml 5, dissolved in a solution of 55% polyethylene glycol-300, 35% propylene glycol and 10% water) at a point dose of approximately 25 mg/kg. […]
The therapeutic (knockdown) and residual efficacy of 7 and 8, each administered orally at a point dose of 25 mg/kg bodyweight, was evaluated against adult tick (Dermacentor variabilis and Rhipicephalus sanguineus) and adult cat flea (Ctenocephalides felis) infestations on dogs. […] Ticks were counted and classified, but not removed, on all dogs on Day 1, approximately 24 hours after treatment. On Day 2, approximately 48 hours after treatment, ticks were counted, classified and removed. […]
The therapeutic (knockdown) and residual efficacy of 7, administered orally at a point dose of 35 mg/kg bodyweight, was evaluated against adult tick (Dermacentor variabilis and Rhipicephalus sanguineus) and adult cat flea (Ctenocephalides felis) infestations on dogs. […] GM percent efficacy of treatments against both tick species and fleas was calculated using the following formula: […]

[2] = tested on: Lone star tick larvae (Amblyomma americanum); test: Larval immersion microassay against larval-stage Lone star ticks; conditions: concentration of no greater than 0.3 mM; 30 minute immersion, counted after 24 hours
Description: The larval immersion microassay was conducted as described in detail in White, et al., J. Med. Entomol. 41: 1034-1042 (2004). Compounds of the invention were formulated in dimethylsulfoxide (DMSO) to prepare a stock solution at a concentration of at least 10 mM. Using 96-well microtiter plates, an aliquot of the mM sample was subsequently diluted in a water-based solution containing 1% ethanol and 0.2% Triton X-100, to obtain the desired concentration (typically 0.3 mM or lower) of compound in a volume of 0.1 ml (minimum n=3 replicates per compound or concentration). Approximately 30-50 Lone star tick larvae (Amblyomma americanum) were submerged into each well containing compounds. After a 30 minute immersion period, larvae were removed with a wide-bore pipette tip in 0.05 ml of fluid, dispensed into a commercial paper tissue biopsy bag which was sealed at the top with a plastic dialysis clip, inverted and allowed to air dry for 60 minutes. Bags containing larvae were then incubated at approximately 27 degrees Celsius and >90% relative humidity. After 24 hours, bags were opened, live and dead larvae were counted and percent larval mortality was calculated.
7 and 8 contain one chiral center each, and are racemic mixtures comprised of approximately 50% R- and 50% S-enantiomer. […] After 24 hours, biopsy bags were opened and the numbers of live and dead larvae were determined

Cc1cc(C2=NOC(c3cc(Cl)c(Cl)c(Cl)c3)(C(F)(F)F)C2)ccc1C(=O)NCc1ccc2c(c1)B(O)OC2(C)C (centres unmarked) [Compound 7, N-((1-Hydroxy-3,3-dimethyl-1,3-dihydrobenzo[c][1,2]oxaborol-6-yl)methyl)-2-methyl-4-(5-(3,4,5-trichlorophenyl)-5-(trifluoromethyl)-4,5-dihydroisoxazol-3-yl)benzamide]
continued residual efficacy [1]: > 95% | activity (percent larval mortality) [2]: ≥ 80%
